The values below come from publication PMC6451128.

Chains of the proteins cited; added tags and fusions are not shown. Residues count along the entry.
UniProt Q9H611, 206-620: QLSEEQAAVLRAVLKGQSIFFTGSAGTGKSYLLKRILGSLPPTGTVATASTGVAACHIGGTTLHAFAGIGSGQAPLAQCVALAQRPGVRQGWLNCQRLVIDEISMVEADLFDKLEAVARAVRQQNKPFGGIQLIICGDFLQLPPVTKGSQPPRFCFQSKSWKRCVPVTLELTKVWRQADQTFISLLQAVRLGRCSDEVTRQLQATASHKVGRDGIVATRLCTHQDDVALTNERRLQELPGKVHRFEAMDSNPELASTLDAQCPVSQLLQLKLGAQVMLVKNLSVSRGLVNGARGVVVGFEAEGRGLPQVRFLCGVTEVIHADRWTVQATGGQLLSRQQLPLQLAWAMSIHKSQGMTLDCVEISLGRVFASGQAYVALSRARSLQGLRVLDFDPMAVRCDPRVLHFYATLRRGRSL
UniProt Q9H611, 206-620 H269A: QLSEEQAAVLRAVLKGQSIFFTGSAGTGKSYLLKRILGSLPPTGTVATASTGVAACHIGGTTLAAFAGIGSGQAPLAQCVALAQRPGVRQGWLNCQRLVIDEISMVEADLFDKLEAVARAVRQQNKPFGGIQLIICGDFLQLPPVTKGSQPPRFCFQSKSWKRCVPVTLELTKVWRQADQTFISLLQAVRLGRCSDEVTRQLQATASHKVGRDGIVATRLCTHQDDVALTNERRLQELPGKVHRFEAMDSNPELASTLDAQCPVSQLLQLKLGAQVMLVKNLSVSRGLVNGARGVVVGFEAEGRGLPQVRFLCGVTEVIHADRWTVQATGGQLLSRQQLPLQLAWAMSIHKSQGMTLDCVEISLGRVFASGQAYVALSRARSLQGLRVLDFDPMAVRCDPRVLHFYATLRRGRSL
UniProt Q9H611, 206-620 H555A: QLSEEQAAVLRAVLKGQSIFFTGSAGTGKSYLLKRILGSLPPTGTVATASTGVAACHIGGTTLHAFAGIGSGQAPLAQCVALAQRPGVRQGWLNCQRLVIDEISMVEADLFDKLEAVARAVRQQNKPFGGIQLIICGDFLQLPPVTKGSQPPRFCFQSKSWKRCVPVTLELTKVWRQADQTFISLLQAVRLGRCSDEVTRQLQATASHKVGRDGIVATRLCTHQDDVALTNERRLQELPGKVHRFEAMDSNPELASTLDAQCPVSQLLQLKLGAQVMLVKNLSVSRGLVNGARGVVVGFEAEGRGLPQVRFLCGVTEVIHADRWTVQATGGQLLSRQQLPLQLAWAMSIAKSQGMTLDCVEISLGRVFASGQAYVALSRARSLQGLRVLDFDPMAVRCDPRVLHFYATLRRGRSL

What all share (assay): EMSA
(Mobility shift assays separate free from complexed probe on a gel.)

For series [1], the target named is hPIF1HD wild-type (human) (UniProt Q9H611). As to conditions: minimal binding under G4 assay conditions; 20 mM HEPES-NaOH pH 7.5 (Results say pH 7.2), 135 mM NaCl, 5% glycerol, 1 mM DTT, 1 mg/ml BSA, 20 min at 20 C; 0.4 nM T(35); G4 assay: 0.1 nM G4 DNA; recombinant protein; residues 206-620; protein details: His tag removed by thrombin, GSRM left at N-term; label: 32P; single-stranded DNA.

The target of series [2] is hPIF1HD H269A (human) (UniProt Q9H611). The conditions noted are these: no nucleotide; 20 mM HEPES-NaOH pH 7.5 (Results say pH 7.2), 135 mM NaCl, 5% glycerol, 1 mM DTT, 1 mg/ml BSA, 20 min at 20 C; 0.4 nM T(35); G4 assay: 0.1 nM G4 DNA; recombinant protein; residues 206-620; protein details: His tag removed, GSRM left; label: 5' 32P (PNK); single-stranded DNA.
The target of series [3] is hPIF1HD H555A (human) (UniProt Q9H611). The conditions noted are these: no nucleotide; 20 mM HEPES-NaOH pH 7.5 (Results say pH 7.2), 135 mM NaCl, 5% glycerol, 1 mM DTT, 1 mg/ml BSA, 20 min at 20 C; 0.4 nM T(35); G4 assay: 0.1 nM G4 DNA; recombinant protein; residues 206-620; protein details: His tag removed, GSRM left; label: 5' 32P (PNK); single-stranded DNA.

Construct, isoform or probe ends are uncertain for at least one entry. For part of these data: The comparison behind a weaker result is the experiment's own reference, which may not be listed here. For part of these data: Whether high values mean tight binding is not given here for every scale. A value given as a limit tells only on which side of the number the result lay.

For “TTTTTTTTTTGGGGTTTTGGGG [single-stranded precursor of G4 DNA]”, in series [1], the binding result is listed as “binds more weakly”. For “TTTTTTTTTTTTTTTTTTTTTTTTTTTTTTTTTTT [poly-T(35)]”, the binding signal (fold decrease in affinity vs WT) in series [2] and in series [3] was greater than 50 throughout.
